The results in this text go back to publication PMC10589346.

Protein sequences, listed by entry. Tags and fused reporters are not part of them. Lines headed by an entry give the natural chain unless they say otherwise; changes in a name come on top.
UniProt Q8N697: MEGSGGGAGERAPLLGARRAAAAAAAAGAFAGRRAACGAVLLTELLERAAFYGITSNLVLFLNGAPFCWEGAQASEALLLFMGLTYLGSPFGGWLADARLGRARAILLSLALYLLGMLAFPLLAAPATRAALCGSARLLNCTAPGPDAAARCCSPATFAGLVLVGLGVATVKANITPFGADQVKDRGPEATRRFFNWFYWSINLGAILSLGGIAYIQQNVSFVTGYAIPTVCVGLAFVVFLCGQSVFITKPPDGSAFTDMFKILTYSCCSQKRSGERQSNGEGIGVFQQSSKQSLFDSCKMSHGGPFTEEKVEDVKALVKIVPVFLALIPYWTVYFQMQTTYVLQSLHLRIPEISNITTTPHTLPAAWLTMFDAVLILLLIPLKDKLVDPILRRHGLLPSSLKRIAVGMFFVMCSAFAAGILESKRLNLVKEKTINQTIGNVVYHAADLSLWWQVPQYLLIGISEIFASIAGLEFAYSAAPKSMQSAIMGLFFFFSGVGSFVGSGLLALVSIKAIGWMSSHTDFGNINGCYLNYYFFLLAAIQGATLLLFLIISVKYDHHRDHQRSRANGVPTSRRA

Experiment [1] addresses human full-length SLC15A4 with C-terminus tandem twin Strep-tag (human) (UniProt Q8N697). Put plainly: co-purification of co-expressed proteins; C-terminal Flag-tagged TASL(1–20&207–301) and C-terminal strep-tagged SLC15A4 co-expressed in HEK293F; complex reconstituted in LMNG micelles.
The target in experiment [2] is SLC15A4-FLAG E465K (human) (UniProt Q8N697). Put plainly: co-IP; SLC15A4-FLAG (wild-type or mutants) co-transfected with TASL(1–20)Strep in HEK293T; lysis buffer 25 mM HEPES, 300 mM NaCl, 5 mM EDTA, 1% NP-40, pH 7.5; FLAG beads overnight at 4 °C; immunoblotting.
The target in experiment [3] is SLC15A4-FLAG wild-type (human) (UniProt Q8N697). Described as above.

Results are given in words; binding and its absence hold for the method and conditions named. For part of these data: Binding seen in cells or lysates may run through a third protein. Some results given as binding are weak or reduced against the parent protein; the word gives no strength. For part of these data: Sequences can lack the tags named with a protein.

B1: C-terminal Flag-tagged TASL(1–20&207–301) (domain or fragment, UniProt Q9HAI6 1-20; Q9HAI6 207-301)
chain: MLSEGYLSGLEYWNDIHWSCNAVLNEYLEQKVVELYKQYIMDTVFHDSSPTQILASELIMTSVDQISLQVSREKNLETSKARDIVFSRLLQLMSTEITEISTPSLHISQYSNVNP
Consider B1, for which the binding result in experiment [1] is “binds”.

B2: TASL(1–20)Strep (domain or fragment, UniProt Q9HAI6 1-20)
chain: MLSEGYLSGLEYWNDIHWSC
On to B2, for which the binding entry was “no binding” in experiment [2] and “binds” in experiment [3].
